This is an account of results in the supplement of paper PMC10032668.

Sequences of proteins named here, by UniProt entry; tags and fusion partners are left off.
CALR, P27797, UniProt P27797, whole entry: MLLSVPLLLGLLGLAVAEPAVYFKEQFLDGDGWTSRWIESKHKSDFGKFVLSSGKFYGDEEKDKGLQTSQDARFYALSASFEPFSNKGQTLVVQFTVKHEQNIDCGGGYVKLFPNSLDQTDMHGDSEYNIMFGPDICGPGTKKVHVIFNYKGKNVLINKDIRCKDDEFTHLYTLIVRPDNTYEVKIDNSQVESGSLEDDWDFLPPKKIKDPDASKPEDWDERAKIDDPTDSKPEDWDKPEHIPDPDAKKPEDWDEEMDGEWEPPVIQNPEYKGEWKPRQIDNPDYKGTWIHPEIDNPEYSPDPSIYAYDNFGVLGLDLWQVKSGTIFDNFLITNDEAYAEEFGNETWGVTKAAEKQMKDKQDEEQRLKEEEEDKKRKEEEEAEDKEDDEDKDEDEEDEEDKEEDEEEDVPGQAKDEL
IGF2BP3, O00425, UniProt O00425, whole entry: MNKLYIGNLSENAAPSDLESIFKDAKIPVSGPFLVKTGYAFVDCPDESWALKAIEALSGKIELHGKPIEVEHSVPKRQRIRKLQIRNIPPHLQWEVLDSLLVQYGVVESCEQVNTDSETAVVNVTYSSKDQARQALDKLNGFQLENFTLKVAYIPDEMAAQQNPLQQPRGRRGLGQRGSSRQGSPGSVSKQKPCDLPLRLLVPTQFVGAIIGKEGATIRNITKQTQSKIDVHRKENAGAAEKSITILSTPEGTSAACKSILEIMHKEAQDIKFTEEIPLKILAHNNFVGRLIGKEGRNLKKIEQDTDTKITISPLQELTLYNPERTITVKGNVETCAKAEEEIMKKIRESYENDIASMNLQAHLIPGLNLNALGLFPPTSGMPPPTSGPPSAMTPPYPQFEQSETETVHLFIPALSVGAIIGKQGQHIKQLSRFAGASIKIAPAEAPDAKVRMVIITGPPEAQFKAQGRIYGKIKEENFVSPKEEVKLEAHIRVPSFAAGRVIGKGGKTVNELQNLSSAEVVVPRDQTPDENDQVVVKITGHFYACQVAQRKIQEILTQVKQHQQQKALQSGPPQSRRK
TPX2, Q9ULW0, UniProt Q9ULW0, whole entry: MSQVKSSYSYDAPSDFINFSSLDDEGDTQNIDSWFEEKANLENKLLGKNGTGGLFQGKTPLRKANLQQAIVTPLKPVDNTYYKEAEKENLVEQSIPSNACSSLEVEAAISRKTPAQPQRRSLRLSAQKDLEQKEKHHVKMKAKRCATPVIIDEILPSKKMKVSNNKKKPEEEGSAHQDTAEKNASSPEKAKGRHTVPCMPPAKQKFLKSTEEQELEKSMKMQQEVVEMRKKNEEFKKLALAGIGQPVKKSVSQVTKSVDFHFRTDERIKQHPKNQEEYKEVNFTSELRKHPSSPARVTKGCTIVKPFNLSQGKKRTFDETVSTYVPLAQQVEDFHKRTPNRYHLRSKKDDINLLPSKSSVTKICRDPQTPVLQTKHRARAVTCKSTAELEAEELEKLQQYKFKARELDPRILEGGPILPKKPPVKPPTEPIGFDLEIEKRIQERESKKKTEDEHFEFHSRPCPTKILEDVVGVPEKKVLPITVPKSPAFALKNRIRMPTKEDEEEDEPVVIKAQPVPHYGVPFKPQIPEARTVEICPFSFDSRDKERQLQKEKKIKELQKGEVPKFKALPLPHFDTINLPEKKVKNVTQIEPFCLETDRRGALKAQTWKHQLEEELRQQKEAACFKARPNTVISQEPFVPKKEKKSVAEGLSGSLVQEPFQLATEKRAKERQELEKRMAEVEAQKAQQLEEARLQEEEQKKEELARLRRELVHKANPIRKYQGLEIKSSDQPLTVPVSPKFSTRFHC

The other results are listed elsewhere or left out. Only hits are listed; about a third recur on repeated control peptides.

Assay in all cases: PRISMA enrichment of interactor (LFQ) in peptide spot vs all other peptide spots (log2 fold change); higher = stronger / more specific binding of the interactor to the peptide
One assay has as its target BMS1, Q14692. As for the experimental part:
(§1)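 PRISMA: 15-aa overlapping tiles (offset 8 aa) of 60 microproteins, plus SOS1/GLUT1 control peptides, were spot-synthesized on cellulose membranes in triplicate. Membranes were incubated with benzonase-treated HEK293T lysate, and bound proteins were identified by LC-MS/MS with LFQ. Enrichment is the log2 fold change of each protein in one spot versus all other spots. Only interactors passing the significance cutoff are listed.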

For another assay, the target named is CD81, P60033. Here is the method: as §1
A further assay concerns the target DNAJB4, Q9UDY4. As for the experimental part: as §1
A further assay addresses FAM136A, Q96C01. As for the experimental part: as §1
The next assay has as its target FAM168A, Q92567. Here is the method:
as §1

The target of the next assay is HSD17B12, Q53GQ0. As for the experimental part: as §1
A further assay has as its target LANCL1, O43813. As for the experimental part: as §1
The target of the next assay is MSH2, P43246. As for the experimental part: as §1
In a further assay the target is SQSTM1, Q13501. Here is the method: as §1
A further assay deals with TOMM70, O94826. As for the experimental part:
as §1

A further assay addresses VCP, P55072. As for the experimental part: as §1
In a further assay the target is BRIX1, Q8TDN6. Here is the method: as §1
In the next assay the target is CALR, P27797. As for the experimental part:
as §1

Another assay concerns the target CFAP20, Q9Y6A4. As for the experimental part:
as §1

The target of the next assay is CHAMP1, Q96JM3. As for the experimental part: as §1
Another assay has as its target CNOT8, Q9UFF9. Here is the method: as §1
The next assay addresses COPS2, P61201. Here is the method: as §1
The next assay deals with CPSF2, Q9P2I0. As for the experimental part: as §1
A further assay deals with DDB1, Q16531. Here is the method: as §1
Another assay has as its target EBNA1BP2, Q99848. Here is the method:
as §1

Another assay has as its target FAR1, Q8WVX9. Here is the method:
as §1

In the next assay the target is GLUD1, P00367. Here is the method: as §1
For another assay, the target named is HCFC1, P51610. As for the experimental part:
as §1

The target in the next assay is HDAC1, Q13547. As for the experimental part:
as §1

The target in the next assay is IGF2BP1, Q9NZI8. Here is the method:
as §1

A further assay has as its target IGF2BP3, O00425. As for the experimental part: as §1
The target of the next assay is LAS1L, Q9Y4W2. Here is the method:
as §1

In another assay the target is MRPL21, Q7Z2W9. Here is the method:
as §1

The next assay concerns the target MRPL37, Q9BZE1. Here is the method: as §1
The next assay concerns the target MRPS2, Q9Y399. Here is the method: as §1
Another assay has as its target MT-ATP6, P00846. Here is the method: as §1
The next assay addresses NEK7, Q8TDX7. Here is the method: as §1
The target of the next assay is NOC3L, Q8WTT2. Here is the method: as §1
In another assay the target is NSFL1C, Q9UNZ2. Here is the method: as §1
The target of a further assay is PCBP1, Q15365. Here is the method: as §1
The next assay has as its target PES1, O00541. Here is the method:
as §1

Another assay concerns the target PSMD14, O00487. Here is the method: as §1
The target in another assay is REXO4, Q9GZR2. As for the experimental part:
as §1

The target of another assay is TIMM8B, Q9Y5J9. Here is the method:
as §1

For another assay, the target named is BIRC6, Q9NR09. As for the experimental part:
as §1

Another assay concerns the target C19orf47, Q8N9M1. As for the experimental part: as §1
Substrate in assay [1]: CS, O75390
As for the experimental part:
as §1

In another assay the target is PTGES3, Q15185. As for the experimental part: as §1
A further assay addresses TCAF1, Q9Y4C2. Here is the method: as §1
In another assay the target is BLMH, Q13867. Here is the method: as §1
Another assay has as its target EZH2, Q15910. As for the experimental part: as §1
A further assay concerns the target GOLIM4, O00461. As for the experimental part: as §1
In a further assay the target is LMF2, Q9BU23. Here is the method: as §1
The next assay concerns the target NFS1, Q9Y697. As for the experimental part: as §1
The next assay concerns the target NOC4L, Q9BVI4. As for the experimental part:
as §1

The target of the next assay is RCN2, Q14257. As for the experimental part: as §1
Another assay concerns the target RRP8, O43159. Here is the method:
as §1

The target of the next assay is TPX2, Q9ULW0. Here is the method:
as §1

A further assay concerns the target USP15, Q9Y4E8. Here is the method: as §1
A further assay concerns the target WDR61, Q9GZS3. Here is the method:
as §1

With DWAVGYRPGKHAASK [EBAG9], the “PRISMA enrichment of interactor (log2)” value with BMS1, Q14692 came to 5.41; in the assay with CD81, P60033, 3.7; with DNAJB4, Q9UDY4 it was 4.44; in the assay with FAM136A, Q96C01, 4.36; with FAM168A, Q92567, 4.71; with HSD17B12, Q53GQ0, 7.02. Moreover, the “PRISMA enrichment of interactor (log2)” value came to 5.26 with LANCL1, O43813; 5.22 with MSH2, P43246; 3.96 with SQSTM1, Q13501; 5.93 with TOMM70, O94826; 4.68 in the assay with VCP, P55072.
For the molecule SPILLSLPSPVIHKM [RP11-12K22.1], the “PRISMA enrichment of interactor (log2)” value in the assay with BRIX1, Q8TDN6 amounted to 10; with CALR, P27797 it was 6.36; in the assay with CFAP20, Q9Y6A4 it was 6.03; with CHAMP1, Q96JM3, 4.46; with CNOT8, Q9UFF9, 7.92; in the assay with COPS2, P61201, 4.75. For the same molecule, the “PRISMA enrichment of interactor (log2)” value with CPSF2, Q9P2I0 was 5.18; with DDB1, Q16531 it was 7.18; with EBNA1BP2, Q99848, 5.39; with FAR1, Q8WVX9, 5.22; with GLUD1, P00367, 4.53; in the assay with HCFC1, P51610, 5.48. For the same molecule, the “PRISMA enrichment of interactor (log2)” value with HDAC1, Q13547 came out at 4.6; with IGF2BP1, Q9NZI8, 4.64; with IGF2BP3, O00425 it was 8.81; in the assay with LAS1L, Q9Y4W2, 4.77; in the assay with MRPL21, Q7Z2W9 it was 4.81; with MRPL37, Q9BZE1, 4.43. In addition, the “PRISMA enrichment of interactor (log2)” value stood at 5.42 with MRPS2, Q9Y399; 6.83 with MT-ATP6, P00846; 5.23 with NEK7, Q8TDX7; 5.09 in the assay with NOC3L, Q8WTT2; 5.4 in the assay with NSFL1C, Q9UNZ2; 5.19 with PCBP1, Q15365. Also, the “PRISMA enrichment of interactor (log2)” value with PES1, O00541 was 6.21; with PSMD14, O00487, 8.07; with REXO4, Q9GZR2, 5.08; in the assay with TIMM8B, Q9Y5J9, 6.02.
For KKYSHWKRGKVIVIS [RP11-432J24.5], the “PRISMA enrichment of interactor (log2)” value was 3.85 in the assay with BIRC6, Q9NR09; 6.45 in the assay with C19orf47, Q8N9M1; 4.75 in [1]; 4.79 in the assay with PTGES3, Q15185; 4.54 with TCAF1, Q9Y4C2.
Consider MRNKREGAFPCAALG [LINC00881_2], for which the “PRISMA enrichment of interactor (log2)” value with BLMH, Q13867 was found to be 4.89; with EZH2, Q15910 it was 3.96; in the assay with GOLIM4, O00461, 4.55; with LMF2, Q9BU23, 4.85; with NFS1, Q9Y697, 5.89; with NOC4L, Q9BVI4 it was 5.3. The “PRISMA enrichment of interactor (log2)” value with RCN2, Q14257 amounted to 6.84; in the assay with RRP8, O43159, 3.71; with TPX2, Q9ULW0, 4.59; with USP15, Q9Y4E8, 5.64; in the assay with WDR61, Q9GZS3, 7.11.
